From PMC12305709, “Functional investigation of the RNA helicase MOV10 with respect to its interplay with factors involved in nonsense-mediated mRNA decay” (The Journal of Biological Chemistry, 2025) come the findings set out here.

This data set relates to T1, UPF1 (Homo sapiens).
T1 sequence (looked up, limits assumed): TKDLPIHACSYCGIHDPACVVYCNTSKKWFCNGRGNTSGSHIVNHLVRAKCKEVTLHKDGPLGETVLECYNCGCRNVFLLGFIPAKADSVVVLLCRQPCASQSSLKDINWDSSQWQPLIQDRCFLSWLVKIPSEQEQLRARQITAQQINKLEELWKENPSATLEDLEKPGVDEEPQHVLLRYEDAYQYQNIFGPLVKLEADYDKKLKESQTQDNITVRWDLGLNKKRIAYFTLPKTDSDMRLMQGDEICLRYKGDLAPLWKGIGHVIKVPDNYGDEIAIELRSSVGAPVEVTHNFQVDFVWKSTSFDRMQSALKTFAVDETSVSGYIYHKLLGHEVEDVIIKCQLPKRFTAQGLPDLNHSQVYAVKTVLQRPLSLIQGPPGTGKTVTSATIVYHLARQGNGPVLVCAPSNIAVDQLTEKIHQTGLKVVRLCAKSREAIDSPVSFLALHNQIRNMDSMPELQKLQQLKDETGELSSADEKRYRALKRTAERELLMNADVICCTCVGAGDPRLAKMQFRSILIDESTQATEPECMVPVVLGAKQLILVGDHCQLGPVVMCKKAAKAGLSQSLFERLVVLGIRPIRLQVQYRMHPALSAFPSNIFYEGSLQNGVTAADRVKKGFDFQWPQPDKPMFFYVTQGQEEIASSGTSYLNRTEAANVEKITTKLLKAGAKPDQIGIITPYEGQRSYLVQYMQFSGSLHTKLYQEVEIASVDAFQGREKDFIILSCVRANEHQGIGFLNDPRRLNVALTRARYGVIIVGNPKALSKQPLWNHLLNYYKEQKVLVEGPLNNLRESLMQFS
In words: fluorescence anisotropy. The settings on record: 1 mM ATPgS, decreased affinity, Kd only in figure; 20 mM Hepes pH 7.5, 100 mM NaCl, 1 mM MgCl2, 100 ug/ml BSA; 5 nM RNA; 30 min room temperature, read at 25 C; recombinant protein; label: 5' 6-FAM.

Construct, isoform or probe ends are uncertain for at least one entry. The comparison behind a weaker result is the experiment's own reference, which may not be listed here. Where a protein sequence is shown, tags need not be part of it.

As for UUUUUUUUUUUU [U12 RNA], the binding result is listed as “binds more weakly”.
